Results from patent US20030060416A1.
Results are given in words; binding and its absence hold for the method and conditions named. In cells and extracts the contact can be indirect. Some entries that bind do so weakly or less than the wild type. Sequences can lack the tags named with a protein.

Sequences of proteins named here, by UniProt entry; tags and fusion partners are left off.
UniProt Q07817: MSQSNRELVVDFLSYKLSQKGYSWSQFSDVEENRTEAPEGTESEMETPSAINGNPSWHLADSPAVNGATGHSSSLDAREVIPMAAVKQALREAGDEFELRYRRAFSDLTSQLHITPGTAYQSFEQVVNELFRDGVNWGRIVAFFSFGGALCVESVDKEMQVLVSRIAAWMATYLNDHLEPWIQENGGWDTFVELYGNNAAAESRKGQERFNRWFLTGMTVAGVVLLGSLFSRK
UniProt P10415: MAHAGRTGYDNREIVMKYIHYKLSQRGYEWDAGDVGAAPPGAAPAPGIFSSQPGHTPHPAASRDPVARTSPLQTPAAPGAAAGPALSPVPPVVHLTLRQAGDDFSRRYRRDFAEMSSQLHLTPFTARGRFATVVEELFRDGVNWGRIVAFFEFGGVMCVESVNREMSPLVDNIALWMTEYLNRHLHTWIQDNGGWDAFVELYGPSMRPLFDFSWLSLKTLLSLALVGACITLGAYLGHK

Tests used:
[1] = biological target: T7-epitope tagged Bcl-xL (human) (UniProt Q07817); assay: co-immunoprecipitation from 293 cells (anti-Flag IP, T7-antibody immunoblot)
[2] = biological target: T7-epitope tagged Bcl-2 (human) (UniProt P10415); assay: as above
[3] = biological target: T7-epitope tagged Bcl-xL (human) (UniProt Q07817); assay: co-immunoprecipitation from 293 cells (FIG. 5B legend)
[4] = biological target: T7-epitope tagged Bcl-2 (human) (UniProt P10415); assay: as above
[5] = biological target: T7-epitope tagged Bcl-2 (human), P10415; assay: as above; conditions: remark: other sources report otherwise
[6] = biological target: T7-epitope tagged Bcl-2 (human), P10415; assay: co-immunoprecipitation from 293 cells (anti-Flag IP, T7-antibody immunoblot); conditions: remark: other sources report otherwise

Measured: binding

B1: Flag-epitope tagged Blk (protein, not shown: small tags and cut ends)
chain: MSEARLMARDVIKTVPHDQVPQPPVASETPSMKEPVRDVDLMECVEGRNQVALRLACIGDEMDLCLRSPRLVQLPGIAIHRLAVTYSRTGVRGIFRSLIRSLTNLRENIWSWRVLTPGAWVSPDQDPGQLFPMVLLVFLLLGGAWYLQLQ
binds: [1] | [2] | [3] | [4]

B2: Flag-epitope tagged Bik, Q13323 1-160 (protein, human, UniProt Q13323 1-160, looked up, not shown: small tags and cut ends)
chain: MSEVRPLSRDILMETLLYEQLLEPPTMEVLGMTDSEEDLDPMEDFDSLECMEGSDALALRLACIGDEMDVSLRAPRLAQLSEVAMHSLGLAFIYDQTEDIRDVLRSFMDGFTTLKENIMRFWRSPNPGSWVSCEQVLLALLLLLALLLPLLSGGLHLLLK
binds: [5] | [6]
